Measured values from the supplement of paper PMC10849652.
The list shows a part of the results.

Chains of the proteins cited; added tags and fusions are not shown. Lines headed by an entry give the natural chain unless they say otherwise; changes in a name come on top.
UniProt Q9HCJ1: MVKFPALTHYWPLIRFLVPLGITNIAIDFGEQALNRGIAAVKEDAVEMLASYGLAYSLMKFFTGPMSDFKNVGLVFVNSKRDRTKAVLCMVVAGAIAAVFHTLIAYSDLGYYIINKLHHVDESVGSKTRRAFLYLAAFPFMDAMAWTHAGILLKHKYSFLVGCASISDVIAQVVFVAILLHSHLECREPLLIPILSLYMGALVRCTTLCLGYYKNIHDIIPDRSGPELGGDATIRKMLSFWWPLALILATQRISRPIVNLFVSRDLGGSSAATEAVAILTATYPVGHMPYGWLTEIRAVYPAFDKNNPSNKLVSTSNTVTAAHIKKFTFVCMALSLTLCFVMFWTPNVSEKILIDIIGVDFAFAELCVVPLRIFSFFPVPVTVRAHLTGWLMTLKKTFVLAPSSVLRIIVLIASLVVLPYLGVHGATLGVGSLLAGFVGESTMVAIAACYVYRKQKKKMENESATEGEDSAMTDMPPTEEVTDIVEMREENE
UniProt Q9BS18, whole entry, looked up: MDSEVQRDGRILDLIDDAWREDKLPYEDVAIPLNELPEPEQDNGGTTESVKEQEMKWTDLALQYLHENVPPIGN
UniProt Q9NYG5, whole entry, looked up: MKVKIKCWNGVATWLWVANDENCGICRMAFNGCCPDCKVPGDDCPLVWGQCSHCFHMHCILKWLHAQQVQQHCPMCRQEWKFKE
UniProt Q86SJ2: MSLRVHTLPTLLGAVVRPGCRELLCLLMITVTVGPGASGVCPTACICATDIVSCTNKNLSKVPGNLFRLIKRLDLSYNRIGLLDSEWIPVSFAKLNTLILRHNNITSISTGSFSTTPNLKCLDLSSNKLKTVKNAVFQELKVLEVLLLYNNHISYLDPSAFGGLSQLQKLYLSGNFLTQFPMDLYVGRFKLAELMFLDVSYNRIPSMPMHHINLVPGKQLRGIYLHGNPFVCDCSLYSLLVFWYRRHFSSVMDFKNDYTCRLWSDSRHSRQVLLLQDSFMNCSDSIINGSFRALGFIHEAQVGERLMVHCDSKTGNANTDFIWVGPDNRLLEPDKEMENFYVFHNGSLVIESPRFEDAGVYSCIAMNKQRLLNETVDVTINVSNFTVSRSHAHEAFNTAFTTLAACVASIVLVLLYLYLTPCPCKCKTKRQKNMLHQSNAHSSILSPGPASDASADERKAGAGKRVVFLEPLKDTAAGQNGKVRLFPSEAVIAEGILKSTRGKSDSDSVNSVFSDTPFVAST
UniProt Q8NHP1: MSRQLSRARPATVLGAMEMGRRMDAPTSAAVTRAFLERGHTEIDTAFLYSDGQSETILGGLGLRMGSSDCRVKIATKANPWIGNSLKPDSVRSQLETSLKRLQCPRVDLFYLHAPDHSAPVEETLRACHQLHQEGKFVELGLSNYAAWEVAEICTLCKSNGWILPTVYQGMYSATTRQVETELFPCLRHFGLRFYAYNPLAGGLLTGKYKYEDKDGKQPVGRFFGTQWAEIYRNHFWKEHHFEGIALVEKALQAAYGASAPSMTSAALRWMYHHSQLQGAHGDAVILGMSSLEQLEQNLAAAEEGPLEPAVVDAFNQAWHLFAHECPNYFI
UniProt P30838: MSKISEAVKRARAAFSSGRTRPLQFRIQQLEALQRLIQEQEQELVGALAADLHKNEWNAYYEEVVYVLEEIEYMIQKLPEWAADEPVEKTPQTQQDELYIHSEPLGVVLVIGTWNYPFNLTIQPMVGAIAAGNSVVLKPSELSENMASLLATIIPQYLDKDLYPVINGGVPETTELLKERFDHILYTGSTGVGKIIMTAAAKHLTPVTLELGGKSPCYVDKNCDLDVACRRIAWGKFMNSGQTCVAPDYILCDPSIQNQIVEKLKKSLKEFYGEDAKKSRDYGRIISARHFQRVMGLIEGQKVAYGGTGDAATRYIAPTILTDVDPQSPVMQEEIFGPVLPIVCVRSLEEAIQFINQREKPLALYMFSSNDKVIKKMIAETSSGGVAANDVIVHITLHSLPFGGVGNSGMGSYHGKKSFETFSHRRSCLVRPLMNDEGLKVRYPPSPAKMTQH
UniProt Q4VCS5: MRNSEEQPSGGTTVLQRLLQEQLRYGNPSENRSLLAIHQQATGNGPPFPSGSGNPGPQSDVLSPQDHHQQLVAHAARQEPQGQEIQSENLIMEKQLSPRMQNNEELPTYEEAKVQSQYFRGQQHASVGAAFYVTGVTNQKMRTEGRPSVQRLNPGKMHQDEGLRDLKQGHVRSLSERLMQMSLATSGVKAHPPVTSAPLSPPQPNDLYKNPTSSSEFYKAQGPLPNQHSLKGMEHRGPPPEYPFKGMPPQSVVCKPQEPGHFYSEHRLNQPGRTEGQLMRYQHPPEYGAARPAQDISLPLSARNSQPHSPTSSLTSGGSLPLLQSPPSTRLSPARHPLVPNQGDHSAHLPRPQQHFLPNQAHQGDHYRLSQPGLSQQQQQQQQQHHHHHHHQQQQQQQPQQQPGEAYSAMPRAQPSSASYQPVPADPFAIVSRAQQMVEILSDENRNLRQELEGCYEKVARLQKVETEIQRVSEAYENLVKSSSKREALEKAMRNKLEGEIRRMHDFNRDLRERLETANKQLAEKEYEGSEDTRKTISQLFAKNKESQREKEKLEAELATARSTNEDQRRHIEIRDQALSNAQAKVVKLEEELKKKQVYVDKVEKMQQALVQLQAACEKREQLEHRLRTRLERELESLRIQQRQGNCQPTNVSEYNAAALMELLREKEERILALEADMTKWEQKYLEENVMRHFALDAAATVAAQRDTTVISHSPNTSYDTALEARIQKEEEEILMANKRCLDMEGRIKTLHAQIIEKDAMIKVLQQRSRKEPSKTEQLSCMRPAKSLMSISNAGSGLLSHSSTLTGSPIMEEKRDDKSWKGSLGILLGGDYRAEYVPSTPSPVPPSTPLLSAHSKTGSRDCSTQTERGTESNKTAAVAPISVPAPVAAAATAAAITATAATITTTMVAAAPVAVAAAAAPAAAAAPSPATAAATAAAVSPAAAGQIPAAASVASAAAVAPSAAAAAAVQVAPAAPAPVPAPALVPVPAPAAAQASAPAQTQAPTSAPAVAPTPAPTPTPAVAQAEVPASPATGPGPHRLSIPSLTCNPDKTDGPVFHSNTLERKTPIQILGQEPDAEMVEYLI
UniProt Q6P6B7: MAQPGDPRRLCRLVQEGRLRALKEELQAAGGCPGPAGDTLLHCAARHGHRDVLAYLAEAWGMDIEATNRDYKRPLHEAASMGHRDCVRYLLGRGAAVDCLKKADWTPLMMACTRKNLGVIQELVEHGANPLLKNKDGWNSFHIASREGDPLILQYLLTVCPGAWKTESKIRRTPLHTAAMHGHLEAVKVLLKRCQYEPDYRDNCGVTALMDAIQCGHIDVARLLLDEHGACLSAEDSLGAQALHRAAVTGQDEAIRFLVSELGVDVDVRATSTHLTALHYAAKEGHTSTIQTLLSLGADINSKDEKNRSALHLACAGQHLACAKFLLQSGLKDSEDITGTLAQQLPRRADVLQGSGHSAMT
UniProt A1A5B4: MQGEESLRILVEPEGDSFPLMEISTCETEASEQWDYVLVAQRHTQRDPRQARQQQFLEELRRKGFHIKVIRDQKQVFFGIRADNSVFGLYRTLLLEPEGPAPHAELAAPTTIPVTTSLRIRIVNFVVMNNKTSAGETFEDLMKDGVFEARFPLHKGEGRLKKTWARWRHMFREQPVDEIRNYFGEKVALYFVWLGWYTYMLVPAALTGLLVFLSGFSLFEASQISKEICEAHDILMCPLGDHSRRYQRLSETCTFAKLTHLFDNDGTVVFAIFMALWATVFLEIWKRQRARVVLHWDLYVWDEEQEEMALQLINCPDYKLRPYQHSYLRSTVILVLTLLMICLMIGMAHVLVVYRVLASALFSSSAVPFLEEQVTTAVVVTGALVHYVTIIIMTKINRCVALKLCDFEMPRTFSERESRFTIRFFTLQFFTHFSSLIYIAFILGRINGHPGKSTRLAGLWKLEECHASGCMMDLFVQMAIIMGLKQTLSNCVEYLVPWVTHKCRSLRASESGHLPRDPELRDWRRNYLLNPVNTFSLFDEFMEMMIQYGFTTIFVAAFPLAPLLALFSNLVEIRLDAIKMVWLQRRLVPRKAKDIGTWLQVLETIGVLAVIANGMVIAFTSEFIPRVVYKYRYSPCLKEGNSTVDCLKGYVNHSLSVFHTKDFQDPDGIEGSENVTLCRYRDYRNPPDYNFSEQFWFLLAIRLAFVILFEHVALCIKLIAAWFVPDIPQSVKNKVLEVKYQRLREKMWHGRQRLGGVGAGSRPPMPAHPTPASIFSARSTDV
UniProt Q9H8T0: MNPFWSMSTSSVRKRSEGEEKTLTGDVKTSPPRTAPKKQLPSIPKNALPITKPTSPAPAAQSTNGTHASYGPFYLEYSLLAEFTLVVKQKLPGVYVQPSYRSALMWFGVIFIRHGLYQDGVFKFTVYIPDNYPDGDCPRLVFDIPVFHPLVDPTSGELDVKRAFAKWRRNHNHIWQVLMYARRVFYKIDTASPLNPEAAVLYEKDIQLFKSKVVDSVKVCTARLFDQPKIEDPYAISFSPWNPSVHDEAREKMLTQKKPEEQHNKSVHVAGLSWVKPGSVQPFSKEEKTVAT
UniProt Q9Y303: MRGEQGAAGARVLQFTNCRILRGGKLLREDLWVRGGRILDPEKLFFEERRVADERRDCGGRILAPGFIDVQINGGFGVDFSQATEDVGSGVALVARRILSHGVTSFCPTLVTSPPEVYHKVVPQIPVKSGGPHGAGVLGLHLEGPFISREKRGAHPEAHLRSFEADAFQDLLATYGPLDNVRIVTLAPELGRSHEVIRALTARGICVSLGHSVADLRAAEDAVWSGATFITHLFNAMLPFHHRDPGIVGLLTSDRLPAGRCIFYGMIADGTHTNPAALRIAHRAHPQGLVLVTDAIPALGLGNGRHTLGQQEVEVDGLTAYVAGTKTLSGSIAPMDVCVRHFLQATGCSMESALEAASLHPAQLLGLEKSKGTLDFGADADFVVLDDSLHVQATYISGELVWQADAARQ
UniProt P54886: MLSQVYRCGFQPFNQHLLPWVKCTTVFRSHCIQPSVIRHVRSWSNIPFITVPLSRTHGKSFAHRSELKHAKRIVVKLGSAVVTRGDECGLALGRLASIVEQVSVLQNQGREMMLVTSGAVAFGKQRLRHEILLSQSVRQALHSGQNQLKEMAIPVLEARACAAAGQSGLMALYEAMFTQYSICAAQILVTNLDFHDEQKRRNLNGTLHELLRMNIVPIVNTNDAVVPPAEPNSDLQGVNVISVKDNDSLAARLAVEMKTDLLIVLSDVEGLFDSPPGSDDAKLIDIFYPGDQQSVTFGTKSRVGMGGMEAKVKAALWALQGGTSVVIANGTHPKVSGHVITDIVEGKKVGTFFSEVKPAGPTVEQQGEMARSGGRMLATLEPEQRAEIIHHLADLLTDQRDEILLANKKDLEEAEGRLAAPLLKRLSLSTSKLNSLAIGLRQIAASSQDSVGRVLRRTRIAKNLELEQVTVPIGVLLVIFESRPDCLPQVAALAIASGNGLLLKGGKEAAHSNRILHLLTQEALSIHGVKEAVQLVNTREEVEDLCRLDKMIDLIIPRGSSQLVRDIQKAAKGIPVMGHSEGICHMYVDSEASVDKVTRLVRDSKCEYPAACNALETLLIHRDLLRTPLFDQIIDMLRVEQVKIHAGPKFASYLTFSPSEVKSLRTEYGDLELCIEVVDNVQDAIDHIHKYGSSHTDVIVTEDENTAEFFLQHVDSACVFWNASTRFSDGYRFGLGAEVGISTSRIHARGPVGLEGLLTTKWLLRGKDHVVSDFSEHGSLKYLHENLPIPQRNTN
UniProt P13196: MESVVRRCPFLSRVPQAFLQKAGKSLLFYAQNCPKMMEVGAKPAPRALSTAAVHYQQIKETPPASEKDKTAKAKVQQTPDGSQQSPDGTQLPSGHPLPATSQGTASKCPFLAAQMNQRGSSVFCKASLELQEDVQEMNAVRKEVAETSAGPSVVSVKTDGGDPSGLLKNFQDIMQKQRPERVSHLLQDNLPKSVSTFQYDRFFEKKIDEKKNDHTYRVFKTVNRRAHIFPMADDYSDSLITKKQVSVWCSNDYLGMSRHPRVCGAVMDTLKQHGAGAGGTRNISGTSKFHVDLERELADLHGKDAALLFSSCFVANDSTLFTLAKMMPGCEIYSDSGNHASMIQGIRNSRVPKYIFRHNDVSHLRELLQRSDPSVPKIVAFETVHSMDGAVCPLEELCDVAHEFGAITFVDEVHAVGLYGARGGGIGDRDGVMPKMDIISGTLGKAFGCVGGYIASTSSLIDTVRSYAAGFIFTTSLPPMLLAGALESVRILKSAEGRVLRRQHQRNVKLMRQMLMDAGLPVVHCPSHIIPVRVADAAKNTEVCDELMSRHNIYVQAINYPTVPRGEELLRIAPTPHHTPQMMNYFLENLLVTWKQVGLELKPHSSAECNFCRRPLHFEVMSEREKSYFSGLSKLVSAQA
UniProt Q86W74: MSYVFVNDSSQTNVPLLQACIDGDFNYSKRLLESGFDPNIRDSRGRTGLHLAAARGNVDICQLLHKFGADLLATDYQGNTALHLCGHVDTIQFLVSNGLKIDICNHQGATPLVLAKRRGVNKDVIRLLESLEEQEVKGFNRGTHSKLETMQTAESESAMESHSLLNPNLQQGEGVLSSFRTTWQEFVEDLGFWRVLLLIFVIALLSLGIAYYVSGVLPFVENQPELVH

Columns and labels:
Assay in all cases: log2 fold change, soluble protein after heating vs DMSO (PISA); higher = thermal stabilisation; K562 lysate, 10 uM; active = over 0.2 and 3.5 SD of the protein, either way, in both replicates (recomputed)
[1] = compound: CC1=C2C(=CC=C1)N=C(N(C2=O)C3=CC=CC=C3C)CN4C=NC5=C(N=CN=C54)N
Procedure, shortened: (§1)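 Soluble protein was defined as the supernatant remaining after 21,000xg for 90 min, following pooling of heated aliquots and adjustment to 0.5% NP-40 at 4°C. Before that, crude K562 extract at 1 mg/mL protein in PBS pH 7.4 with 1 mM MgCl2 was treated with 10 μM compound for 30 min and heated for 3 min across 48°C-58°C. Quantification used TMTpro 16plex LC-MS/MS with channel sums equalised, and values are log-two fold changes in thermal stability relative to solvent controls from duplicates.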

[2] = compound: Cc1sc2c(c1C)C(c1ccc(Cl)cc1)=N[C@@H](CC(=O)OC(C)(C)C)c1nnc(C)n1-2
Procedure, shortened: as §1

[3] = compound: c1ccc([C@@H]2C[C@H]2NC2CCNCC2)cc1
Procedure, shortened: as §1

[4] = compound: C1=CC=C(C=C1)[C@H](COC2=CC3=C(C=C2)NC(=O)N3)NC(=O)C4=CC=CN(C4=O)CC5=CC(=C(C=C5)F)F
Procedure, shortened: as §1

[5] = compound: CC1=C(SC2=C1C(=N[C@H](C3=NN=C(N32)C)CC(=O)N)C4=CC=C(C=C4)Cl)C
Procedure, shortened: as §1

Question: With ANKH (UniProt Q9HCJ1) as the target, how does the log2 fold change [1] read?
Answer: inactive: -0.078

Question: Which log2 fold change [1] does the source give for ANAPC13 (UniProt Q9BS18) here?
Answer: inactive: -0.269

Question: How did the log2 fold change [1] turn out when ALKBH1 (UniProt Q13686) was run?
Answer: inactive: -0.036

Question: What about the log2 fold change [2] of the same target?
Answer: inactive: -0.001

Question: What about the log2 fold change [3] of the same target?
Answer: inactive: 0.051

Question: ANK2 (UniProt Q01484) was tested. Which log2 fold change [4] did it give?
Answer: inactive: 0.019

Question: What about the log2 fold change [5] of the same target?
Answer: inactive: -0.23

Question: And the log2 fold change [2]?
Answer: inactive: 0.047

Question: And the log2 fold change [3]?
Answer: inactive: 0.127

Question: For ALG10B (UniProt Q5I7T1), which log2 fold change [4] is on record?
Answer: inactive: 0.016

Question: What about the log2 fold change [5] of the same target?
Answer: inactive: 0.069

Question: And the log2 fold change [2]?
Answer: inactive: 0.027

Question: What about the log2 fold change [3] of the same target?
Answer: inactive: 0.048

Question: ALOX12B (UniProt O75342) was tested. Which log2 fold change [4] did it give?
Answer: inactive: -0.006

Question: What about the log2 fold change [5] of the same target?
Answer: inactive: 0.034

Question: What about the log2 fold change [3] of the same target?
Answer: inactive: 0.05

Question: With ALG13 isoform 2 (UniProt Q9NP73) as the target, how does the log2 fold change [3] read?
Answer: inactive: -0.109

Question: With ANAPC11 (UniProt Q9NYG5) as the target, how does the log2 fold change [4] read?
Answer: inactive: 0

Question: What about the log2 fold change [5] of the same target?
Answer: inactive: -0.063

Question: What about the log2 fold change [2] of the same target?
Answer: inactive: -0.005

Question: What about the log2 fold change [3] of the same target?
Answer: inactive: 0.006

Question: How did the log2 fold change [2] turn out when ANKHD1 (UniProt D6RHC4) was run?
Answer: inactive: 0.099

Question: How did the log2 fold change [4] turn out when ANKRD30A (UniProt Q9BXX3) was run?
Answer: inactive: -0.04

Question: What about the log2 fold change [5] of the same target?
Answer: inactive: -0.051

Question: And the log2 fold change [2]?
Answer: inactive: -0.03

Question: What about the log2 fold change [3] of the same target?
Answer: inactive: 0.064

Question: For ANAPC16 (UniProt Q96DE5), which log2 fold change [1] is on record?
Answer: inactive: 0.041

Question: And the log2 fold change [2]?
Answer: inactive: 0.078

Question: What about the log2 fold change [3] of the same target?
Answer: inactive: 0.049

Question: What does the source list for ALKBH6 isoform 2 (UniProt Q3KRA9)?
Answer: log2 fold change [1]: inactive: 0.038; log2 fold change [2]: inactive: -0.034; log2 fold change [3]: inactive: 0.038

Question: ANKRD13B (UniProt Q86YJ7) was tested. Which log2 fold change [2] did it give?
Answer: inactive: 0.078

Question: Which results are given for AMIGO2 (UniProt Q86SJ2)?
Answer: log2 fold change [1]: inactive: -0.216; log2 fold change [3]: inactive: 0.045

Question: ALKBH7 (UniProt Q9BT30) was tested. Which log2 fold change [2] did it give?
Answer: inactive: -0.012

Question: What about the log2 fold change [3] of the same target?
Answer: inactive: -0.014

Question: How did the log2 fold change [2] turn out when AKR7L (UniProt Q8NHP1) was run?
Answer: inactive: -0.067

Question: For AMMECR1L (UniProt Q6DCA0), which log2 fold change [1] is on record?
Answer: inactive: 0.089

Question: And the log2 fold change [2]?
Answer: inactive: -0.044

Question: What about the log2 fold change [3] of the same target?
Answer: inactive: 0.036

Question: Which results are given for ALDH3A1 (UniProt P30838)?
Answer: log2 fold change [2]: inactive: -0.209; log2 fold change [3]: inactive: -0.339

Question: How did the log2 fold change [3] turn out when ANKRD50 (UniProt Q9ULJ7) was run?
Answer: inactive: 0.028

Question: How did the log2 fold change [2] turn out when AMOT (UniProt Q4VCS5) was run?
Answer: inactive: 0.025

Question: How did the log2 fold change [4] turn out when ANKRD16 (UniProt Q6P6B7) was run?
Answer: inactive: 0.21

Question: And the log2 fold change [5]?
Answer: inactive: 0.028

Question: What about the log2 fold change [2] of the same target?
Answer: inactive: 0.004

Question: And the log2 fold change [3]?
Answer: inactive: -0.004

Question: Which log2 fold change [3] does the source give for ALOX5 (UniProt P09917) here?
Answer: inactive: -0.149

Question: Which log2 fold change [3] does the source give for AMN1 (UniProt Q8IY45) here?
Answer: inactive: 0.104

Question: For ANO9 (UniProt A1A5B4), which log2 fold change [2] is on record?
Answer: inactive: 0.057

Question: How did the log2 fold change [1] turn out when AMBRA1 isoform 5 (UniProt Q9C0C7) was run?
Answer: inactive: -0.218

Question: And the log2 fold change [2]?
Answer: inactive: -0.146

Question: What about the log2 fold change [3] of the same target?
Answer: inactive: 0.031

Question: For ANKRD11 (UniProt Q6UB99), which log2 fold change [1] is on record?
Answer: inactive: 0.091

Question: And the log2 fold change [2]?
Answer: inactive: 0.025

Question: And the log2 fold change [3]?
Answer: inactive: 0.323

Question: For ALDH3A2 isoform 2 (UniProt P51648), which log2 fold change [2] is on record?
Answer: inactive: -0.419

Question: What about the log2 fold change [3] of the same target?
Answer: inactive: -0.132

Question: For ANKS6 isoform 4 (UniProt Q68DC2), which log2 fold change [2] is on record?
Answer: inactive: -0.064

Question: For AP3D1 isoform 2 (UniProt O14617), which log2 fold change [1] is on record?
Answer: inactive: -0.009

Question: And the log2 fold change [3]?
Answer: inactive: 0.061

Question: Which results are given for ANAPC15 isoform 2 (UniProt P60006)?
Answer: log2 fold change [2]: inactive: 0.396; log2 fold change [3]: inactive: -0.05

Question: Which log2 fold change [2] does the source give for AKTIP isoform 2 (UniProt Q9H8T0) here?
Answer: inactive: 0.02

Question: For AMDHD2 (UniProt Q9Y303), which log2 fold change [1] is on record?
Answer: inactive: 0.039

Question: What about the log2 fold change [3] of the same target?
Answer: inactive: 0.095

Question: Which log2 fold change [3] does the source give for ANGEL1 (UniProt Q9UNK9) here?
Answer: inactive: 0.002

Question: How did the log2 fold change [4] turn out when AP2S1 (UniProt M0QZ21) was run?
Answer: inactive: -0.059

Question: And the log2 fold change [5]?
Answer: inactive: -0.01

Question: What about the log2 fold change [3] of the same target?
Answer: inactive: -0.035

Question: How did the log2 fold change [1] turn out when ALDH18A1 isoform 2 (UniProt P54886) was run?
Answer: inactive: 0.229

Question: What about the log2 fold change [2] of the same target?
Answer: inactive: -0.068

Question: Which log2 fold change [2] does the source give for ANXA6 (UniProt E5RK69) here?
Answer: inactive: -0.062

Question: What does the source list for ALAS1 (UniProt P13196)?
Answer: log2 fold change [4]: inactive: 0.058; log2 fold change [5]: inactive: -0.431; log2 fold change [2]: inactive: -0.08; log2 fold change [3]: inactive: 0.01

Question: Which log2 fold change [2] does the source give for ANKRD39 (UniProt Q53RE8) here?
Answer: inactive: 0.114

Question: And the log2 fold change [3]?
Answer: inactive: 0.093

Question: Which log2 fold change [1] does the source give for AMFR (UniProt Q9UKV5) here?
Answer: inactive: 0.048

Question: And the log2 fold change [2]?
Answer: inactive: 0.055

Question: And the log2 fold change [3]?
Answer: inactive: -0.065

Question: How did the log2 fold change [1] turn out when ANKRD46 (UniProt Q86W74) was run?
Answer: inactive: -0.291

Question: And the log2 fold change [2]?
Answer: inactive: 0.049

Question: What about the log2 fold change [3] of the same target?
Answer: inactive: -0.069
